Measurements taken from publication PMC12005498.

B1: ATXN2L, human (protein, UniProt Q8WWM7 1-1075)
chain: MLKPQPLQQPSQPQQPPPTQQAVARRPPGGTSPPNGGLPGPLATSAAPPGPPAAASPCLGPVAAAGSGLRRGAEGILAPQPPPPQQHQERPGAAAIGSARGQSTGKGPPQSPVFEGVYNNSRMLHFLTAVVGSTCDVKVKNGTTYEGIFKTLSSKFELAVDAVHRKASEPAGGPRREDIVDTMVFKPSDVMLVHFRNVDFNYATKDKFTDSAIAMNSKVNGEHKEKVLQRWEGGDSNSDDYDLESDMSNGWDPNEMFKFNEENYGVKTTYDSSLSSYTVPLEKDNSEEFRQRELRAAQLAREIESSPQYRLRIAMENDDGRTEEEKHSAVQRQGSGRESPSLASREGKYIPLPQRVREGPRGGVRCSSSRGGRPGLSSLPPRGPHHLDNSSPGPGSEARGINGGPSRMSPKAQRPLRGAKTLSSPSNRPSGETSVPPPPAVGRMYPPRSPKSAAPAPISASCPEPPIGSAVPTSSASIPVTSSVSDPGVGSISPASPKISLAPTDVKELSTKEPGRTLEPQELARIAGKVPGLQNEQKRFQLEELRKFGAQFKLQPSSSPENSLDPFPPRILKEEPKGKEKEVDGLLTSEPMGSPVSSKTESVSDKEDKPPLAPSGGTEGPEQPPPPCPSQTGSPPVGLIKGEDKDEGPVAEQVKKSTLNPNAKEFNPTKPLLSVNKSTSTPTSPGPRTHSTPSIPVLTAGQSGLYSPQYISYIPQIHMGPAVQAPQMYPYPVSNSVPGQQGKYRGAKGSLPPQRSDQHQPASAPPMMQAAAAAGPPLVAATPYSSYIPYNPQQFPGQPAMMQPMAHYPSQPVFAPMLQSNPRMLTSGSHPQAIVSSSTPQYPSAEQPTPQALYATVHQSYPHHATQLHAHQPQPATTPTGSQPQSQHAAPSPVQHQAGQAPHLGSGQPQQNLYHPGALTGTPPSLPPGPSAQSPQSSFPQPAAVYAIHHQQLPHGFTNMAHVTQAHVQTGITAAPPPHPGAPHPPQVMLLHPPQSHGGPPQGAVPQSGVPALSASTPSPYPYIGHPQGEQPGQAPGFPGGADDRIREFSLAGGIWHGRAEGLQVGQDARVLGGE
B2: RC3H1, human (protein, UniProt Q5TC82 1-1133)
chain: MPVQAPQWTDFLSCPICTQTFDETIRKPISLGCGHTVCKMCLNKLHRKACPFDQTTINTDIELLPVNSALLQLVGAQVPEQQPITLCSGVEDTKHYEEAKKCVEELALYLKPLSSARGVGLNSTTQSVLSRPMQRKLVTLVHCQLVEEEGRIRAMRAARSLGERTVTELILQHQNPQQLSSNLWAAVRARGCQFLGPAMQEEALKLVLLALEDGSALSRKVLVLFVVQRLEPRFPQASKTSIGHVVQLLYRASCFKVTKRDEDSSLMQLKEEFRTYEALRREHDSQIVQIAMEAGLRIAPDQWSSLLYGDQSHKSHMQSIIDKLQTPASFAQSVQELTIALQRTGDPANLNRLRPHLELLANIDPSPDAPPPTWEQLENGLVAVRTVVHGLVDYIQNHSKKGADQQQPPQHSKYKTYMCRDMKQRGGCPRGASCTFAHSQEELEKFRKMNKRLVPRRPLSASLGQLNEVGLPSAAILPDEGAVDLPSRKPPALPNGIVSTGNTVTQLIPRGTDPSYDSSLKPGKIDHLSSSAPGSPPDLLESVPKSISALPVNPHSIPPRGPADLPPMPVTKPLQMVPRGSQLYPAQQTDVYYQDPRGAAPPFEPAPYQQGMYYTPPPQCVSRFVRPPPSAPEPAPPYLDHYPPYLQERVVNSQYGTQPQQYPPIYPSHYDGRRVYPAPSYTREEIFRESPIPIEIPPAAVPSYVPESRERYQQIESYYPVAPHPTQIRPSYLREPPYSRLPPPPQPHPSLDELHRRRKEIMAQLEERKVISPPPFAPSPTLPPTFHPEEFLDEDLKVAGKYKGNDYSQYSPWSCDTIGSYIGTKDAKPKDVVAAGSVEMMNVESKGMRDQRLDLQRRAAETSDDDLIPFGDRPTVSRFGAISRTSKTIYQGAGPMQAMAPQGAPTKSINISDYSPYGTHGGWGASPYSPHQNIPSQGHFSERERISMSEVASHGKPLPSAEREQLRLELQQLNHQISQQTQLRGLEAVSNRLVLQREANTLAGQSQPPPPPPPKWPGMISSEQLSLELHQVEREIGKRTRELSMENQCSLDMKSKLNTSKQAENGQPEPQNKVPAEDLTLTFSDVPNGSALTQENISLLSNKTSSLNLSEDPEGGGDNNDSQRSGVTPSSAP
B3: eIF2A (protein, UniProt Q9BY44 1-585)
chain: MAPSTPLLTVRGSEGLYMVNGPPHFTESTVFPRESGKNCKVCIFSKDGTLFAWGNGEKVNIISVTNKGLLHSFDLLKAVCLEFSPKNTVLATWQPYTTSKDGTAGIPNLQLYDVKTGTCLKSFIQKKMQNWCPSWSEDETLCARNVNNEVHFFENNNFNTIANKLHLQKINDFVLSPGPQPYKVAVYVPGSKGAPSFVRLYQYPNFAGPHAALANKSFFKADKVTMLWNKKATAVLVIASTDVDKTGASYYGEQTLHYIATNGESAVVQLPKNGPIYDVVWNSSSTEFCAVYGFMPAKATIFNLKCDPVFDFGTGPRNAAYYSPHGHILVLAGFGNLRGQMEVWDVKNYKLISKPVASDSTYFAWCPDGEHILTATCAPRLRVNNGYKIWHYTGSILHKYDVPSNAELWQVSWQPFLDGIFPAKTITYQAVPSEVPNEEPKVATAYRPPALRNKPITNSKLHEEEPPQNMKPQSGNDKPLSKTALKNQRKHEAKKAAKQEARSDKSPDLAPTPAPQSTPRNTVSQSISGDPEIDKKIKNLKKKLKAIEQLKEQAATGKQLEKNQLEKIQKETALLQELEDLELGI

The binders below were run against Semliki Forest virus (SFV) nsP3 fused with the biotin ligase miniTurbo (nsP3-mTB) (Semliki Forest virus) (assay: proximity labelling).

Binder	binding
B1	binds
B2	binds
B3	binds

Results are given in words; binding and its absence hold for the method and conditions named. In cells and extracts the contact can be indirect. Here binding means that the protein was enriched with, or labelled near, the bait; the list need not be complete.
